# According to the supplement of paper PMC10849652:
# The chains behind the UniProt entries cited, without tags or fusion partners. Where a name states a change or a piece, a line headed by the entry shows the natural chain unless it says otherwise.
# UniProt Q9NP79: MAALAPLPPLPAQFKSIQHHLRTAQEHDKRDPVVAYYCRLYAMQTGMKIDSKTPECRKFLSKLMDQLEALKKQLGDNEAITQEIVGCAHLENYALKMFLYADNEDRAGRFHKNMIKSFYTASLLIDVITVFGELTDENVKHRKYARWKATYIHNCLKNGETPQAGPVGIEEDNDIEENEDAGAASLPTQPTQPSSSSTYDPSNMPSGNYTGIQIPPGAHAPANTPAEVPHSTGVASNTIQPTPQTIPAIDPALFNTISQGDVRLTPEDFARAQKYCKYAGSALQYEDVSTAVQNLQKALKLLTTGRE
# UniProt P98170, whole entry, looked up: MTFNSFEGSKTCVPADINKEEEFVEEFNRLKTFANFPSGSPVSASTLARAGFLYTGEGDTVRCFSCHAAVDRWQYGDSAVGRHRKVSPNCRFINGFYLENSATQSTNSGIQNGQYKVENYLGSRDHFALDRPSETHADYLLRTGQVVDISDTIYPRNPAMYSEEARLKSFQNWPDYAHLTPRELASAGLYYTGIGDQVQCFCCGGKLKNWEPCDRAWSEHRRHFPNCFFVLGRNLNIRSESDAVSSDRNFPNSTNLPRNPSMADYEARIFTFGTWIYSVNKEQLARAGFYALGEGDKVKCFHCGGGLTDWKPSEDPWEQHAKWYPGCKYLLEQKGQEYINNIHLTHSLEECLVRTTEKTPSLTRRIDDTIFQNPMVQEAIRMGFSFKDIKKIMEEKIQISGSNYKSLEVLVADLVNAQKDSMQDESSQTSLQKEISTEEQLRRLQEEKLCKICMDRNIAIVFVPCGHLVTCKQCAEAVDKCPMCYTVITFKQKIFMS
# UniProt Q15061: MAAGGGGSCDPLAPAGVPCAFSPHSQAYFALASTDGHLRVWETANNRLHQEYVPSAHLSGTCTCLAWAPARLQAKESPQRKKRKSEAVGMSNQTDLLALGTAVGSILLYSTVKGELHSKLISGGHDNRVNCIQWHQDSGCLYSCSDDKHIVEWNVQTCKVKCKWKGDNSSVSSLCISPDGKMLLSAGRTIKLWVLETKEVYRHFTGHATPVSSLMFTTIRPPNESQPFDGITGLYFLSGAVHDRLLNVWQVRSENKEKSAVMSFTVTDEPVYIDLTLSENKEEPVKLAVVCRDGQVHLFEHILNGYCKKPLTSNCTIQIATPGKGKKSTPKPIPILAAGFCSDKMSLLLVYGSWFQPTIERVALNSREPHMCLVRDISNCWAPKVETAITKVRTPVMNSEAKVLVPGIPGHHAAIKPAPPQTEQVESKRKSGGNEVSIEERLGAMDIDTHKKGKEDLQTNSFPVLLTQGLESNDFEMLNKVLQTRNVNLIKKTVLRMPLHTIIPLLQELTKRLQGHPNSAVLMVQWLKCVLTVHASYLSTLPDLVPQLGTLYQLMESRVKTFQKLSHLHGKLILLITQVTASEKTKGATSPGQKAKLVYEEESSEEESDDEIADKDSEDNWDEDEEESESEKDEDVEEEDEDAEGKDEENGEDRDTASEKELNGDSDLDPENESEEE
# UniProt Q9Y4P8: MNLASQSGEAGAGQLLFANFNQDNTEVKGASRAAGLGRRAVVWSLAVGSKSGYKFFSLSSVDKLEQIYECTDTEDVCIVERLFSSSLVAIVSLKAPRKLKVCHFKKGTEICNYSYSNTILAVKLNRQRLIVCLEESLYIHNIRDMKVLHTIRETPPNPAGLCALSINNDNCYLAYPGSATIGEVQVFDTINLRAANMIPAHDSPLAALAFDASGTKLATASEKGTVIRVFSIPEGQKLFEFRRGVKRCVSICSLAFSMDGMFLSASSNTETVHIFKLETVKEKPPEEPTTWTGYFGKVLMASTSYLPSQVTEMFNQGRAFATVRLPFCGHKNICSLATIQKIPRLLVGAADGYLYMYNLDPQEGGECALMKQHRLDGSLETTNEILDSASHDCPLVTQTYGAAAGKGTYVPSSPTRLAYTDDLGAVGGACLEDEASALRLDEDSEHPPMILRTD
# UniProt Q9BV38: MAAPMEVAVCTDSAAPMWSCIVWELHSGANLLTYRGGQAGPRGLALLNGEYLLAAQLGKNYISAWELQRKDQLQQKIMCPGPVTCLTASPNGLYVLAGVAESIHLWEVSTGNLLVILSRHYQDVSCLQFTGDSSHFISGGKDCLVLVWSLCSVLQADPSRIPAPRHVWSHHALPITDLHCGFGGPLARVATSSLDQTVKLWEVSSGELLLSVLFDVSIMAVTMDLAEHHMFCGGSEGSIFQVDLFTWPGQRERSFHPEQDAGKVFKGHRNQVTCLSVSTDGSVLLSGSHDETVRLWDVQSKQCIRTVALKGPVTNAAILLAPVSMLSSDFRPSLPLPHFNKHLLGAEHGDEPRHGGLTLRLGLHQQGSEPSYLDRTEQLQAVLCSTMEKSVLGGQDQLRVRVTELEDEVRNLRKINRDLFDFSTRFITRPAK
# UniProt Q9UK41: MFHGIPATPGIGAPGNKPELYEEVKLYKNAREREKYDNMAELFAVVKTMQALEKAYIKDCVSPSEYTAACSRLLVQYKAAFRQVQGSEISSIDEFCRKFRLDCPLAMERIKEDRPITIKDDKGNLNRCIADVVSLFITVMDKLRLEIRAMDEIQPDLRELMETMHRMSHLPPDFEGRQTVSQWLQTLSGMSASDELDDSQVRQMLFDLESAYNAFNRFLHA
# UniProt O95785: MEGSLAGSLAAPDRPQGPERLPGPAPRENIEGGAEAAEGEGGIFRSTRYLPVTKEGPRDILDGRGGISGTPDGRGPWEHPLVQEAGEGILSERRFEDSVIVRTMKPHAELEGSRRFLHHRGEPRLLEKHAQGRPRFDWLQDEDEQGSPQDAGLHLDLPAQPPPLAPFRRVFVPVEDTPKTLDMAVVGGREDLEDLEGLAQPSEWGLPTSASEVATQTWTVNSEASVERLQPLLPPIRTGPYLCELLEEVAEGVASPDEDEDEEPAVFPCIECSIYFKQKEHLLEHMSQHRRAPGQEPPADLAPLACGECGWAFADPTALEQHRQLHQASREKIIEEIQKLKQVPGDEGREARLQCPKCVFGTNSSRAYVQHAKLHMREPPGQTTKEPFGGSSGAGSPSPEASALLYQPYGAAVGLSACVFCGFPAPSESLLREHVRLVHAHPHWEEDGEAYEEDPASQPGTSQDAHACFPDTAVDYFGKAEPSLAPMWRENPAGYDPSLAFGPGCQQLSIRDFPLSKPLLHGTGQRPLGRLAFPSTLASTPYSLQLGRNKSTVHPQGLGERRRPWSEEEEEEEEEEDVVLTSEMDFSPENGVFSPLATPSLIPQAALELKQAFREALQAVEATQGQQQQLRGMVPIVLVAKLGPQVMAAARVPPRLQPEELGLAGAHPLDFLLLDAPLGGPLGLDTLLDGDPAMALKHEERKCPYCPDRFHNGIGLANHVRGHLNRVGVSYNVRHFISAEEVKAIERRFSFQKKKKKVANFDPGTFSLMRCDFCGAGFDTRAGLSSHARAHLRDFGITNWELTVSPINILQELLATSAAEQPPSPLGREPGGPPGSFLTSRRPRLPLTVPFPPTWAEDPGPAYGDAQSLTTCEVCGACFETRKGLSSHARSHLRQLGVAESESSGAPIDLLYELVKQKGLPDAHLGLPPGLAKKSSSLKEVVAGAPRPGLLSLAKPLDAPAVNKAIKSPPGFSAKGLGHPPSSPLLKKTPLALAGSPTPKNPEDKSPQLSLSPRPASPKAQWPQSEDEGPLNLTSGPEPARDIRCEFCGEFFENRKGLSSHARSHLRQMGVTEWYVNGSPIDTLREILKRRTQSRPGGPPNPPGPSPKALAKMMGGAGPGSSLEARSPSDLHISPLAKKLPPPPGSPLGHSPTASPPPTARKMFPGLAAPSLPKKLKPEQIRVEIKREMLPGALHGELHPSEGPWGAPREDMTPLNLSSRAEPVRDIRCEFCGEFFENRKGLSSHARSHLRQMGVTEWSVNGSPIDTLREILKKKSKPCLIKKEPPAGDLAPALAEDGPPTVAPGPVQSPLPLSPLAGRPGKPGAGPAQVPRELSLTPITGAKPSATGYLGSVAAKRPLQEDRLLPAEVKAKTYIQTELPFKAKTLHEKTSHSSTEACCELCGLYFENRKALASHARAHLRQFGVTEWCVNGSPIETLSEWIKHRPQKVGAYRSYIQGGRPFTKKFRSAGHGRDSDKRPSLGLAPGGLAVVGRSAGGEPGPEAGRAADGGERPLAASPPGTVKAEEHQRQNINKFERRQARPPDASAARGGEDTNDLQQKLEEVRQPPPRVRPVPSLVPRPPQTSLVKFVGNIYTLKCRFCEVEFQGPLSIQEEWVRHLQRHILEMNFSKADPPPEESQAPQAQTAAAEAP
# UniProt Q9HAD4: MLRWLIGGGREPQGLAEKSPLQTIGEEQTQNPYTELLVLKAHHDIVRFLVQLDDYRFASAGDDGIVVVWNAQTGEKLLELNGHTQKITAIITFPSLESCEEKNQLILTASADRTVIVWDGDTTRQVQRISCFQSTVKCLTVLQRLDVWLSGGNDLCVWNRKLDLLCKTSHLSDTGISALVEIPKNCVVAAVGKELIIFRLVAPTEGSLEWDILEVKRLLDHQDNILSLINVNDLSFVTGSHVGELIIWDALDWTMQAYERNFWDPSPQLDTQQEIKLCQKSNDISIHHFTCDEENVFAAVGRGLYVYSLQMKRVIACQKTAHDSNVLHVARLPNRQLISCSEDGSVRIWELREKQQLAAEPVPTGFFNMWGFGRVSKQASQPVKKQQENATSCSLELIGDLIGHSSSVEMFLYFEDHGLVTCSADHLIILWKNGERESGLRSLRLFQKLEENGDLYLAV
# UniProt Q5MNZ6: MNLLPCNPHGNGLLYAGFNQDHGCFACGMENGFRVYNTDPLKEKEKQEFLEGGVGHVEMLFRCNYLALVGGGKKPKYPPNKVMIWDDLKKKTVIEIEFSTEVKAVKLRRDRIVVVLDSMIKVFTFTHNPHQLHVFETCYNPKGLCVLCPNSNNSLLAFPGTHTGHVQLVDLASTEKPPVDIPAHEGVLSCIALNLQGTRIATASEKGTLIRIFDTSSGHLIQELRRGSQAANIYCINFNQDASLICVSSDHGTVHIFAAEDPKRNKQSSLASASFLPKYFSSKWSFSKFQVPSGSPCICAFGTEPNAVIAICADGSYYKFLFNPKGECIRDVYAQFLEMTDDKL
# UniProt O00534: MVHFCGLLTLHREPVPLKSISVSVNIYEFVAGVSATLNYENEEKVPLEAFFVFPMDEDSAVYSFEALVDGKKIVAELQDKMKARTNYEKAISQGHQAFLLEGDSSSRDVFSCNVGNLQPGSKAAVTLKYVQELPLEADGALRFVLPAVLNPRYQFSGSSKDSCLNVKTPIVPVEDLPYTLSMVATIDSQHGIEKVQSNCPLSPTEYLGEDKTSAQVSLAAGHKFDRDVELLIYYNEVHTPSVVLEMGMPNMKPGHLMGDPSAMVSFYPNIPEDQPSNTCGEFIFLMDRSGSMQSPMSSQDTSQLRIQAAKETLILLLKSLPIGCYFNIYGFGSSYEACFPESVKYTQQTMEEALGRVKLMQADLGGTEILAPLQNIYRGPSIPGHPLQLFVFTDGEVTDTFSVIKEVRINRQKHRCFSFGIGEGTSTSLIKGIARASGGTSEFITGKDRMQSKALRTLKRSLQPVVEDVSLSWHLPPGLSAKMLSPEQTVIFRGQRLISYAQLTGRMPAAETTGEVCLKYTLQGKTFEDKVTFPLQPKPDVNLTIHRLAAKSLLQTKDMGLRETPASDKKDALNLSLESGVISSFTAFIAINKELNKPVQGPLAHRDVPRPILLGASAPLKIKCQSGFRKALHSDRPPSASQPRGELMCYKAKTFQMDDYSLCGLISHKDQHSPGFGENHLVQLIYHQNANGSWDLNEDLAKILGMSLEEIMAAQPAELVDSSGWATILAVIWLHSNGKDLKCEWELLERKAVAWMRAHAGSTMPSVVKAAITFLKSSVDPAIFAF
# UniProt O75083: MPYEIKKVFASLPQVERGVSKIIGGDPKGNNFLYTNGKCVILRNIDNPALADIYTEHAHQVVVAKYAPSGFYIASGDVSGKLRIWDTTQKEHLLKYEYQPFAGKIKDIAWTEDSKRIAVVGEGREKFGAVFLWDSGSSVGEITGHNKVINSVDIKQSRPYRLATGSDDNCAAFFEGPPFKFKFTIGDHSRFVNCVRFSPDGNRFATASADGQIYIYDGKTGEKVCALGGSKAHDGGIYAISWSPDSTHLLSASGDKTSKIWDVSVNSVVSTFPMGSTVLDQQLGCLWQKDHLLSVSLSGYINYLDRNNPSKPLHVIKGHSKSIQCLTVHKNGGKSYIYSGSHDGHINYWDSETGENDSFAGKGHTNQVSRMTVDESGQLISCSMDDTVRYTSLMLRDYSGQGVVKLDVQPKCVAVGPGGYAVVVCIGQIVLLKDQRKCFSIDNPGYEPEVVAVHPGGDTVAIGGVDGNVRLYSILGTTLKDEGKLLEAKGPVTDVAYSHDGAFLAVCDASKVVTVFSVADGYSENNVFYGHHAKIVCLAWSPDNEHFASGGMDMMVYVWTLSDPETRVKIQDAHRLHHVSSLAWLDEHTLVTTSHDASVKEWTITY
# Some of the results follow.
# How the values were obtained:
# Experiment in all cases: log2 fold change, soluble protein after heating vs DMSO (PISA); higher = thermal stabilisation; K562 lysate, 10 uM; active = over 0.2 and 3.5 SD of the protein, either way, in both replicates (recomputed)
# nilotinib = compound: Cc1cn(-c2cc(NC(=O)c3ccc(C)c(Nc4nccc(-c5cccnc5)n4)c3)cc(C(F)(F)F)c2)cn1 [nilotinib]
# Procedure, shortened: (§1)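 Following dounce homogenisation of K562 pellets in PBS pH 7.4 with 1 mM MgCl2, crude extract at 1 mg/mL protein was incubated for 30 min with 10 μM compound. Aliquots were then heated for 3 min over 48°C-58°C and pooled, NP-40 was added to 0.5% at 4°C, and soluble protein was recovered as the supernatant at 21,000xg for 90 min. Channel-sum-equalised TMTpro 16plex LC-MS/MS quantified this protein. Each value, from duplicates, is a log-two fold change in thermal stability relative to solvent controls.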
# [1] = compound: Cc1nc(Nc2n[nH]c3c2CN(C(=O)N[C@H](CN(C)C)c2ccccc2)C3(C)C)c2sccc2n1
# Procedure, shortened: as §1
# dasatinib = compound: Cc1nc(Nc2ncc(C(=O)Nc3c(C)cccc3Cl)s2)cc(N2CCN(CCO)CC2)n1 [dasatinib]
# Procedure, shortened: as §1
# [2] = compound: Cc1ncc(-c2ccnc(Nc3ccc(S(C)(=O)=O)cc3)n2)n1C(C)C
# Procedure, shortened: as §1
# [3] = compound: Cn1cc(-c2ccc3c(c2)CCN3C(=O)Cc2cccc(C(F)(F)F)c2)c2c(N)ncnc21
# Procedure, shortened: as §1
# quisinostat = compound: Cn1cc(CNCC2CCN(c3ncc(C(=O)NO)cn3)CC2)c2ccccc21 [quisinostat]
# Procedure, shortened: as §1
# tipifarnib = compound: Cn1cncc1[C@@](N)(c1ccc(Cl)cc1)c1ccc2c(c1)c(-c1cccc(Cl)c1)cc(=O)n2C [tipifarnib]
# Procedure, shortened: as §1
# [4] = compound: NC(=O)Nc1cc(-c2cccc(F)c2)sc1C(=O)N[C@H]1CCCNC1
# Procedure, shortened: as §1
# [5] = compound: NC(=O)c1cnc(N[C@@H]2CCCC[C@@H]2N)nc1Nc1cccc(-n2nccn2)c1
# Procedure, shortened: as §1
# [6] = compound: NC1(c2ccc(-c3nc4ccn5c(=O)[nH]nc5c4cc3-c3ccccc3)cc2)CCC1
# Procedure, shortened: as §1
# [7] = compound: NCC(=O)Nc1ccc(-n2nc(C(F)(F)F)cc2-c2ccc3c(ccc4ccccc43)c2)cc1
# Procedure, shortened: as §1
# vorinostat = compound: O=C(CCCCCCC(=O)Nc1ccccc1)NO [vorinostat]
# Procedure, shortened: as §1
# silmitasertib = compound: O=C(O)c1ccc2c(c1)nc(Nc1cccc(Cl)c1)c1ccncc12 [silmitasertib]
# Procedure, shortened: as §1
# [8] = compound: O=C1NC(=O)C(c2cnc3ccccn23)=C1c1cn2c3c(cc(F)cc13)CN(C(=O)N1CCCCC1)CC2
# Procedure, shortened: as §1
# entospletinib = compound: c1cn2cc(-c3ccc4cn[nH]c4c3)nc(Nc3ccc(N4CCOCC4)cc3)c2n1 [entospletinib]
# Procedure, shortened: as §1
Target,log2 fold change (nilotinib),log2 fold change [1],log2 fold change (dasatinib),log2 fold change [2],log2 fold change [3],log2 fold change (quisinostat),log2 fold change (tipifarnib),log2 fold change [4],log2 fold change [5],log2 fold change [6],log2 fold change [7],log2 fold change (vorinostat),log2 fold change (silmitasertib),log2 fold change [8],log2 fold change (entospletinib)
VTA1 (UniProt Q9NP79),inactive: -0.006,inactive: -0.008,inactive: 0.041,inactive: -0.018,inactive: 0.031,inactive: 0.043,inactive: 0.022,inactive: 0.014,inactive: -0.007,inactive: -0.002,inactive: -0.04,inactive: 0.083,inactive: -0.025,inactive: -0.047,inactive: -0.031
XIAP (UniProt P98170),inactive: 0.003,inactive: 0.011,inactive: 0.116,inactive: 0.012,inactive: -0.003,inactive: -0.049,inactive: -0.021,inactive: 0,inactive: 0.015,inactive: -0.004,inactive: -0.025,inactive: 0.073,inactive: 0.019,inactive: 0.019,inactive: -0.051
VPS33B (UniProt Q9H267),inactive: -0.016,inactive: 0.017,inactive: -0.015,inactive: 0.02,inactive: 0.024,inactive: 0.015,inactive: -0.029,inactive: 0.022,inactive: -0.001,inactive: -0.012,inactive: -0.004,inactive: -0.082,inactive: 0.035,inactive: 0.011,inactive: -0.018
WDR43 (UniProt Q15061),inactive: 0.025,inactive: 0.018,inactive: -0.017,inactive: -0.004,inactive: -0.022,inactive: -0.025,inactive: -0.015,inactive: 0.03,inactive: -0.017,inactive: 0.019,inactive: -0.002,inactive: -0.096,inactive: 0.013,inactive: 0.004,inactive: 0.023
WIPI2 (UniProt Q9Y4P8),inactive: 0.032,inactive: 0.043,inactive: 0.007,inactive: -0.018,inactive: -0.004,inactive: -0.054,inactive: 0.011,inactive: 0.053,inactive: -0.005,inactive: 0.021,inactive: -0.036,active: -0.303,inactive: 0.033,inactive: -0.005,inactive: -0.008
WDR18 (UniProt Q9BV38),inactive: -0.012,inactive: 0.063,inactive: 0.044,inactive: 0.04,inactive: 0.002,inactive: -0.015,inactive: -0.028,inactive: 0.004,inactive: 0.022,inactive: 0.047,inactive: 0.021,inactive: -0.036,inactive: 0.013,inactive: -0.011,inactive: -0.008
VPS29 isoform 2 (UniProt Q9UBQ0),inactive: 0.008,inactive: -0.031,inactive: 0.015,inactive: -0.019,inactive: -0.028,inactive: 0.047,inactive: 0.024,inactive: -0.044,inactive: 0.006,inactive: -0.017,inactive: 0,inactive: 0.142,inactive: 0.001,inactive: -0.001,inactive: -0.006
VPS28 (UniProt Q9UK41),inactive: -0.031,inactive: 0.034,inactive: 0.021,inactive: 0.004,inactive: 0.086,inactive: 0.081,inactive: 0.029,inactive: -0.038,inactive: 0.012,inactive: -0.027,inactive: 0.03,active: -0.37,inactive: -0.002,inactive: -0.043,inactive: 0.033
WASHC5 (UniProt Q12768),inactive: 0.008,inactive: 0.004,inactive: -0.004,inactive: 0,inactive: 0.004,inactive: 0.012,inactive: -0.014,inactive: 0.026,inactive: -0.018,inactive: -0.033,inactive: -0.033,inactive: 0.092,inactive: 0.001,inactive: -0.023,inactive: 0
VPS13A (UniProt Q96RL7),inactive: 0.091,inactive: -0.015,inactive: -0.016,inactive: -0.045,inactive: -0.074,inactive: 0.01,inactive: -0.086,inactive: 0.008,inactive: -0.036,inactive: -0.078,inactive: -0.001,inactive: 0.203,inactive: -0.019,inactive: -0.031,inactive: -0.085
WIZ isoform 3 (UniProt O95785),inactive: -0.015,inactive: -0.078,inactive: 0.013,inactive: 0.002,inactive: -0.007,inactive: 0.002,inactive: 0.004,inactive: 0.022,inactive: -0.008,inactive: 0.022,inactive: 0.015,inactive: -0.056,inactive: -0.029,inactive: 0.007,inactive: -0.009
WDR41 (UniProt Q9HAD4),inactive: -0.012,inactive: -0.023,inactive: 0.028,inactive: -0.011,inactive: 0.005,inactive: -0.036,inactive: -0.077,inactive: -0.009,inactive: -0.032,inactive: -0.017,inactive: -0.017,active: -0.284,inactive: 0.022,inactive: -0.08,inactive: 0.01
WDR45B (UniProt Q5MNZ6),inactive: 0,inactive: 0.012,inactive: 0.071,inactive: -0.021,inactive: -0.006,inactive: 0.008,inactive: -0.026,inactive: -0.013,inactive: -0.013,inactive: 0.046,inactive: -0.011,inactive: 0.012,inactive: 0.019,inactive: 0.027,inactive: 0.014
VWA5A (UniProt O00534),inactive: -0.01,inactive: 0.054,inactive: -0.012,inactive: -0.034,inactive: 0.087,inactive: 0.024,inactive: 0.013,inactive: -0.024,inactive: 0.057,inactive: 0,inactive: 0.023,inactive: -0.061,inactive: -0.044,inactive: -0.03,inactive: -0.014
WDR1 (UniProt O75083),inactive: -0.003,inactive: -0.007,inactive: -0.002,inactive: -0.007,inactive: 0.017,inactive: 0.055,inactive: 0.025,inactive: -0.015,inactive: -0.01,inactive: 0.011,inactive: -0.014,inactive: 0.046,inactive: -0.001,inactive: 0,inactive: 0.015
WBP4 (UniProt O75554),inactive: 0.009,inactive: -0.013,inactive: 0.058,inactive: 0.027,inactive: 0.058,inactive: -0.037,inactive: 0,inactive: 0.016,inactive: -0.04,inactive: 0.025,inactive: 0.013,inactive: 0.151,inactive: -0.002,inactive: -0.035,inactive: 0.041
WWC2 isoform 6 (UniProt Q6AWC2),inactive: 0.046,inactive: -0.032,inactive: 0.05,inactive: 0.044,inactive: 0.037,inactive: -0.023,inactive: -0.037,inactive: -0.003,inactive: 0.057,inactive: 0.022,inactive: -0.027,inactive: -0.077,inactive: -0.001,inactive: -0.018,inactive: -0.052
WDR73 (UniProt Q6P4I2),inactive: 0.037,inactive: -0.022,inactive: 0.013,inactive: -0.058,inactive: 0,inactive: -0.004,inactive: 0.015,inactive: 0.011,inactive: 0.018,inactive: -0.019,inactive: -0.083,inactive: -0.052,inactive: 0.03,inactive: -0.036,inactive: -0.058
WASHC2A (UniProt Q641Q2),inactive: 0.021,inactive: 0.003,inactive: 0.003,inactive: 0.03,inactive: 0.003,inactive: 0.005,inactive: -0.003,inactive: 0.001,inactive: -0.004,inactive: -0.013,inactive: 0.009,inactive: 0.079,inactive: -0.014,inactive: -0.004,inactive: -0.006
WRB (UniProt O00258),inactive: 0.06,inactive: -0.017,inactive: -0.014,inactive: 0.183,inactive: 0.082,inactive: 0.015,inactive: -0.044,inactive: -0.005,inactive: 0.071,inactive: 0.024,inactive: 0.082,inactive: 0.131,inactive: -0.055,inactive: -0.012,inactive: 0.146

# Rewritten with tabs: part of the list above
Target	log2 fold change (nilotinib)	log2 fold change [1]	log2 fold change (dasatinib)	log2 fold change [2]	log2 fold change [3]	log2 fold change (quisinostat)	log2 fold change (tipifarnib)	log2 fold change [4]	log2 fold change [5]	log2 fold change [6]	log2 fold change [7]	log2 fold change (vorinostat)	log2 fold change (silmitasertib)	log2 fold change [8]	log2 fold change (entospletinib)
VPS33B (UniProt Q9H267)	inactive: -0.016	inactive: 0.017	inactive: -0.015	inactive: 0.02	inactive: 0.024	inactive: 0.015	inactive: -0.029	inactive: 0.022	inactive: -0.001	inactive: -0.012	inactive: -0.004	inactive: -0.082	inactive: 0.035	inactive: 0.011	inactive: -0.018
WDR43 (UniProt Q15061)	inactive: 0.025	inactive: 0.018	inactive: -0.017	inactive: -0.004	inactive: -0.022	inactive: -0.025	inactive: -0.015	inactive: 0.03	inactive: -0.017	inactive: 0.019	inactive: -0.002	inactive: -0.096	inactive: 0.013	inactive: 0.004	inactive: 0.023
WIPI2 (UniProt Q9Y4P8)	inactive: 0.032	inactive: 0.043	inactive: 0.007	inactive: -0.018	inactive: -0.004	inactive: -0.054	inactive: 0.011	inactive: 0.053	inactive: -0.005	inactive: 0.021	inactive: -0.036	active: -0.303	inactive: 0.033	inactive: -0.005	inactive: -0.008
WDR18 (UniProt Q9BV38)	inactive: -0.012	inactive: 0.063	inactive: 0.044	inactive: 0.04	inactive: 0.002	inactive: -0.015	inactive: -0.028	inactive: 0.004	inactive: 0.022	inactive: 0.047	inactive: 0.021	inactive: -0.036	inactive: 0.013	inactive: -0.011	inactive: -0.008
